Assay results as given in PubChem BioAssay AID1671190 (National Center for Advancing Translational Sciences (NCATS), 2021).
“And” between values parts separate entries of the source, which are not always exact repeats. Equal entries are not always repeated. Out of some 580,000 compounds screened, about 6,100 (1.1%) were called active. Inconclusive results, whose numbers are uncertain, are shown with a selection of clear calls. Calls follow the shape of the dose curve; as a rule, active = well fitted inhibition curve with a large enough effect; inconclusive = small, poorly fitted or top-dose-only effect, or another doubt; inactive = no such curve, though single readings can be large or run the other way. Potencies of inconclusive entries are doubtful fits and often do not repeat.

Amino acid sequences for entries named in this document (tags omitted). A change or cut given only in a name is not applied to a line headed by its entry.
UniProt P18054: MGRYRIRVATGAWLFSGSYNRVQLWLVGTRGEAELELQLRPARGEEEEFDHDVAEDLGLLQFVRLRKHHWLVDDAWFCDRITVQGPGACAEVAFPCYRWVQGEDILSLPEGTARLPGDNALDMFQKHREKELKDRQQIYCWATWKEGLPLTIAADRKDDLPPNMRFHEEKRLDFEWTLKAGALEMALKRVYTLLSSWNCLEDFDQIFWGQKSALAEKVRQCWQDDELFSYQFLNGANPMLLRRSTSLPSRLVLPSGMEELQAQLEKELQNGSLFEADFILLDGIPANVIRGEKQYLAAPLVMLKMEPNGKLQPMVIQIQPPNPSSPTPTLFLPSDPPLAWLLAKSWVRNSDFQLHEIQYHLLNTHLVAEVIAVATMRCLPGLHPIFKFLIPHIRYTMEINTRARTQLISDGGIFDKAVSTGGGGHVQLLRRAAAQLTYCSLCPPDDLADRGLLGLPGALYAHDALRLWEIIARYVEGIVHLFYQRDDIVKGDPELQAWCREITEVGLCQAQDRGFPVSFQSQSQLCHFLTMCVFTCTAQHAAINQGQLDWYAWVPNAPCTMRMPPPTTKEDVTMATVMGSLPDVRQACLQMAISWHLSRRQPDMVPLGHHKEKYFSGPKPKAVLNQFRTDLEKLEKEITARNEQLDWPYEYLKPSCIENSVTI

Molecular target: Polyunsaturated fatty acid lipoxygenase ALOX12 (Homo sapiens) (UniProt P18054)
Test: Primary qHTS assay for inhibitors of human arachidonate 12S-lipoxygenase (ALOX12): Round 2
Conditions: purified 12hLO, xylenol orange hydroperoxide absorbance; activity change, negative = inhibition: at 108 µM (top of the series) unless noted
Method in brief: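 Hydroperoxide product was detected by ferrous iron/xylenol orange as the 573 to 405 nm absorbance ratio. Arachidonic acid at 40 uM (final) was turned over for 30 min at room temperature by 150 nM human 12hLO, pH 7.0 Hepes buffer, after 15 min compound preincubation.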
% is scaled to controls: 0 for no effect and ±100 for the full control effect; potency is read from the fitted curve at half-maximal effect.

SMILES	activity change, negative = inhibition	Potency
CCOc1ccccc1NC(=S)N1CCN(c2ccc(O)cc2)CC1	inactive: -21.8%	
COc1ccc(CNC(=S)NCc2ccc(F)cc2)cc1		inconclusive: 50.1 µM [inhibitor, partial curve, poor fit]
CCN(CC)c1ccc(/C=C2/SC(=O)N(C(C)C)C2=O)o1		active: 44.7 µM
Cc1nn(C(C)C(=O)Nc2ccccc2Cl)c(=O)c2nn(-c3ccccc3)c(C)c12 (centres undefined)	inactive: 1.3%	
COc1ccc(-c2nc(C3CN(C(=O)NCc4ccccc4)C3)no2)cc1	inactive: 46.3%	
Cc1ccc(C2CCCN2Cc2nc(-c3cccs3)no2)cc1 (centres undefined)		inconclusive: 50.1 µM [inhibitor, partial curve, poor fit]
O=c1[nH][nH]c(C(F)(F)F)c1/C=N/N1CCOCC1	inactive: -13.4%	
O=CNc1cc(-c2ccc(C(=O)N3CCOCC3)cc2)cn2c(-c3ccc(F)cc3)cnc12		inconclusive: 79.4 µM [inhibitor, partial curve, poor fit]
COc1ccccc1N1CCN(C(=O)c2cnc(N3CCCCC3)c3ccccc23)CC1		inconclusive: 44.7 µM [inhibitor, partial curve, poor fit]
O=C1C(=Cc2ccccn2)CCc2ccccc21		inconclusive: 50.1 µM [inhibitor, partial curve, poor fit]
Cc1cc2c(cc3c(SCC(=O)Nc4cccc(Cl)c4C)nnc(C)n32)o1		inconclusive: 56.2 µM [inhibitor, partial curve, poor fit]
CCc1ccc(C(=O)NC(Cc2c[nH]c3ccccc23)C(=O)OCC(=O)c2ccc(Br)cc2)cc1 (centres undefined)		inconclusive: 126 µM [inhibitor, partial curve, poor fit]
CCOC(=O)C1=C(C)N=c2s/c(=C\c3ccc(OCC(=O)O)cc3)c(=O)n2C1c1ccc(OC(C)C)cc1 (centres undefined)		inconclusive: 70.8 µM [inhibitor, single point]
O=C(c1ccc(F)cc1)N1CCC2(CCCCO2)CC1	inactive: -11.3%	
CC(C)N1CCc2[nH]c(=S)[nH]c(=O)c2C1		inconclusive: 3.55 µM [inhibitor, full curve, poor fit]
CSc1ccccc1CNc1nc(NCC2CC2)nc2ccsc12		inconclusive: 89.1 µM [inhibitor, partial curve, poor fit]
CSc1cccc(NC(=O)COc2cccc(-c3nnc4n3CCCC4)c2)c1	inactive: 26.6%	
Cc1cc(-c2ccc(C)c(S(=O)(=O)Nc3cccc(C#N)c3)c2)on1		inconclusive: 158 µM [inhibitor, partial curve, poor fit]
Cc1ccc(OCCN(C)C(C)c2nc3ccccc3c(=O)[nH]2)cc1 (centres undefined)	inactive: -1.79%	
O=C(NC1C(=O)NNC1c1ccccc1)c1ccc(F)cc1 (centres undefined)		inconclusive: 39.8 µM [inhibitor, single point]
COc1ccc(OC)c(C2C(C#N)=C(N)Oc3c2c(C)nn3-c2cccc(Cl)c2)c1 (centres undefined)		inconclusive: 39.8 µM [inhibitor, partial curve, poor fit]
COc1ccc(NC(=O)CN(C)C(=O)CCc2ccccc2)cc1	inactive: -16.8%	
CCC(C)NC(=O)CSc1ncnc2ccccc12 (centres undefined)		inconclusive: 50.1 µM [inhibitor, single point]

Looked up one by one from the list above:
SMILES	activity change, negative = inhibition	Potency
CCC(C)NC(=O)CSc1ncnc2ccccc12 (centres undefined)		inconclusive: 50.1 µM [inhibitor, single point]
O=C(NC1C(=O)NNC1c1ccccc1)c1ccc(F)cc1 (centres undefined)		inconclusive: 39.8 µM [inhibitor, single point]
COc1ccc(-c2nc(C3CN(C(=O)NCc4ccccc4)C3)no2)cc1	inactive: 46.3%	

Following part.

SMILES	activity change, negative = inhibition	Potency
COc1cc(-c2cc(NC=O)c3ncc(-c4ccc(C(C)=O)cc4)n3c2)ccc1O		inconclusive: 79.4 µM [inhibitor, partial curve, poor fit]
CC(=O)Nc1cccc(NC(=O)CSc2ncc(C(=O)Nc3ccc(F)cc3)c(=O)n2C)c1		inconclusive: 5.01 µM [inhibitor, full curve, poor fit]
CC(=O)NN=C(C)C	inactive: 19.9%	
C1CC1Cc1noc(CN2CCN(C3C4CC5CC(C4)CC3C5)CC2)n1 (centres undefined)	inactive: -6.91%	
O=C(Nc1cccc(Cl)c1)c1ccc(NCCCN2CCOCC2)c([N+](=O)[O-])c1		inconclusive: 31.6 µM [inhibitor, partial curve]
O=C(CSc1nccn1-c1cccc(Cl)c1)NO	inactive: -5.2%	
CCOC(=O)Cc1csc(NC(=O)CSc2ccc(Br)cc2)n1		inconclusive: 17.8 µM [inhibitor, full curve, poor fit]
C#CCNC(=O)C[C@@H]1C[C@@]2(C(=O)OCC)CCC=C2N(Cc2ccc3c(c2)OCO3)C1=O		inconclusive: 31.6 µM [inhibitor, partial curve]
COCCNCc1ccc(Cl)cc1Cl	inactive: -4.09%	
CC(C)(C)n1nnnc1C(c1cc2ccccc2o1)N(Cc1ccccc1)Cc1ccccc1 (centres undefined)	inactive: 10.5%	
Cc1c(C(=O)N(Cc2nc3ccccc3c(=O)[nH]2)C(C)C)oc2ccc(Cl)cc12	inconclusive: -39.8% [inhibitor]	
COC(=O)c1ccc2nc(-c3cccc(Br)c3)c(Cc3ccccc3)n2c1	inactive: 37.7%	
Cc1nc2scc(-c3ccccc3)c2c(=O)n1N=C1C=CC(=O)C=C1		active: 2.82 µM
Cc1ccc(C(=O)CSc2n[nH]c(-c3ccco3)n2)cc1C		inconclusive: 0.199 µM [inhibitor, full curve, poor fit]
Cc1ccccc1C(=O)N1C(C(=O)NCc2ccccc2)COC12CCN(C(=O)c1ccco1)CC2 (centres undefined)	inactive: 0.2%	
COCc1nc(CCNC(=O)NC2CCCCC2)no1	inactive: 19%	
COc1ccc(S(=O)(=O)N2CCN(C(=S)NC3CCCCC3)CC2)cc1		inconclusive: 44.7 µM [inhibitor, partial curve, poor fit]
O=C(CCNS(=O)(=O)c1ccc(Br)s1)NCc1ccccc1		inconclusive: 79.4 µM [inhibitor, partial curve, poor fit]
CCOc1ccc(C(=O)Nc2nnc(NC(=S)Nc3ccccc3)s2)cc1	inactive: -24%	
CCC1=C(C(=O)OC)C(c2ccccc2F)N2C(CC(=O)NC3CC3)=CSC2=N1 (centres undefined)	inactive: 63.3%	
C[C@H](CO)N1C[C@H](C)[C@@H](CN(C)Cc2ccc3c(c2)OCO3)Oc2ccc(NS(C)(=O)=O)cc2C1=O		inconclusive: 12.6 µM [inhibitor, partial curve, poor fit]
O=C(CCc1ccc(S(=O)(=O)NCc2ccccc2)cc1)NCc1ccco1	inactive: -8.28%	
CCc1ccc(NC(=O)[C@H](NC(=O)[C@@H]2Cc3ccccc3CN2)c2ccccc2)cc1	inactive: -13.1%	

SMILES	activity change, negative = inhibition	Potency
COc1ccc(CNC(=O)C2CCN(S(=O)(=O)c3ccc4nc5c(c(C(=O)O)c4c3)CC(C)CC5)CC2)cc1 (centres undefined)		inconclusive: 22.4 µM [inhibitor, partial curve, poor fit] and inconclusive: 17.8 µM [inhibitor, partial curve, poor fit]
COc1cccc(Nc2n[nH]c(=S)s2)c1		active: 44.7 µM
CC(C)CC(NC/C=C/c1ccccc1)C(=O)O (centres undefined)		inconclusive: 0.398 µM [inhibitor, full curve]
C[C@@H]1CN([C@@H](C)CO)C(=O)Cc2cc(NC(=O)Nc3ccc(F)cc3)ccc2O[C@@H]1CN(C)Cc1ccc(Cl)c(Cl)c1		inconclusive: 56.2 µM [inhibitor, partial curve, poor fit]
CC(C)c1ccccc1NC1=NS(=O)(=O)c2ccccc21	inactive: -61.9%	
O=C(NCc1nnc(SCc2ccccc2)n1-c1ccccc1)C12CC3CC(CC(C3)C1)C2	inactive: 27.6%	
COc1ccc(NC(=O)N2CCCC(Cn3cnc4cccnc43)C2)cc1 (centres undefined)	inactive: -22.6%	
CC(C)c1ccc(C(=O)OCC(=O)NC2CCCC2)cc1		inconclusive: 25.1 µM [inhibitor, partial curve]
CCOc1ccccc1CN1CCCC(c2nc(-c3cccnc3)no2)CCNC(=O)CC1 (centres undefined)	inactive: 11.6%	
COc1ccc(-n2nnnc2SCC(=O)c2ccc3c(c2)OCCO3)c(OC)c1	inactive: -1.06%	
Cc1ccccc1N=Cc1ccc[nH]1	inactive: 1.19%	
COc1cc(-c2nnc3sc(-c4ccco4)nn23)cc(OC)c1OC		inconclusive: 35.5 µM [inhibitor, partial curve, poor fit]
CC1CC(C)CN(S(=O)(=O)c2ccc3c(c2)C(C)(C)C(=O)N3C)C1 (centres undefined)		inconclusive: 3.98 µM [inhibitor, full curve, poor fit]
COC(=O)C(C(=O)OC)C(CC(C(C(=O)OC)C(=O)OC)C(C(=O)OC)C(=O)OC)c1cc(OC)ccc1Br (centres undefined)	inactive: -2.07%	
Cc1nc2ccc(S(=O)(=O)Nc3ccc(-c4nc5cccnc5s4)cc3)cc2s1	inactive: -10.1%	
CN1CCN(C(CNC(=O)Nc2ccc(Cl)cc2)c2ccc(F)cc2)CC1 (centres undefined)		inconclusive: 50.1 µM [inhibitor, partial curve, poor fit]
CCSc1oc(-c2ccco2)nc1S(=O)(=O)c1ccc(F)cc1		inconclusive: 70.8 µM [inhibitor, partial curve, poor fit]
COc1ccc(-c2cc(OC(=O)c3cccc(C)c3)c3c(C)oc(C)c3c(=O)c2)cc1		inconclusive: 126 µM [inhibitor, single point]
CCn1nc(-c2ccc(C)c(S(=O)(=O)NC3CC3)c2)c2c(c1=O)CCCC2	inactive: 4.96%	
Cc1ccc(CNc2ncnc3c2cnn3-c2ccc(C)cc2C)cc1		inconclusive: 141 µM [inhibitor, partial curve, poor fit]
O=C(NCCN1CCC(n2c(=O)[nH]c3ccccc32)CC1)c1ccncc1		inconclusive: 79.4 µM [inhibitor, partial curve, poor fit]
CCn1cc(C2Nc3ccccc3C(=O)N2O)c(C)n1 (centres undefined)		inconclusive: 6.31 µM [inhibitor, partial curve, poor fit]
COc1ccccc1C(c1nnnn1C(C)(C)C)N1CCN(Cc2ccccc2)CC1 (centres undefined)		inconclusive: 39.8 µM [inhibitor, partial curve, poor fit]
